The text below walks through data of PMC7360063, “Brassinosteroids regulate root meristem development by mediating BIN2-UPB1 module in Arabidopsis” (PLoS Genetics, 2020).

One experiment has as its target T1, UPB1-cYFP (Arabidopsis) (UniProt O22901).
T1 sequence: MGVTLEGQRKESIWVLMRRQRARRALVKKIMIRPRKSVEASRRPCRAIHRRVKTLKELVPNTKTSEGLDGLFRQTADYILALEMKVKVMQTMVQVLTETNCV
Briefly: split reporter; BiFC: partner-nYFP (pXY103) and UPB1-cYFP (pXY104) co-transformed into N. benthamiana leaves; YFP fluorescence by microscopy.

For experiment [1], the target named is BIL1 in pGBKT7 (Arabidopsis). Briefly: two-hybrid; Matchmaker GAL4 system, yeast AH109; UPB1 in pGADT7, BIN2, BIL1, BIL2 or BES1 in pGBKT7; growth on SD/-Leu-Trp-His.

Results are given in words; binding and its absence hold for the method and conditions named. For some assays here: Binding seen in cells or lysates may run through a third protein. For some assays here: Tags and fused reporters may be left off the sequences shown.

As to BIL1-nYFP (Arabidopsis) (enzyme), in the experiment with UPB1-cYFP (Arabidopsis), the binding result was “no binding”.

B1: His-SUMO-UPB1 (natural protein, Arabidopsis, UniProt O22901 1-102, looked up)
chain: T1 sequence
notes: UPB1, Arabidopsis, At2g47270; The phosphorylation methods speak of a 6x His tag; source: E. coli, purified
As for B1, in experiment [1], the binding entry is “no binding”.
